Laboratory results published in patent US8148391B2 (Cephalon, Inc., priority 2006, dated 2012).

The chains behind the UniProt entries cited, without tags or fusion partners. Residues count along the entry.
UniProt P08581, 956-1390 limits assumed: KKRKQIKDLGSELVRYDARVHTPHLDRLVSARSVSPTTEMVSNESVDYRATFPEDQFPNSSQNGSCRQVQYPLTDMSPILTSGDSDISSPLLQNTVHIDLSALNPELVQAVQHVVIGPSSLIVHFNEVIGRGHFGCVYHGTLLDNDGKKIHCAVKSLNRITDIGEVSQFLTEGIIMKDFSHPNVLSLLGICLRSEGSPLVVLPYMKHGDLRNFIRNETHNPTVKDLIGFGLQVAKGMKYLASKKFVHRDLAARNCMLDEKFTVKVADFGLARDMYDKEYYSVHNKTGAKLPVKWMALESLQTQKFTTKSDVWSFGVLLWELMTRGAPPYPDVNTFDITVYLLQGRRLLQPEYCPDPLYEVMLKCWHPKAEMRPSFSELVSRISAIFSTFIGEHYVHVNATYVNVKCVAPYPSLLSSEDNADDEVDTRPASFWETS
UniProt Q9UM73, 19-1620: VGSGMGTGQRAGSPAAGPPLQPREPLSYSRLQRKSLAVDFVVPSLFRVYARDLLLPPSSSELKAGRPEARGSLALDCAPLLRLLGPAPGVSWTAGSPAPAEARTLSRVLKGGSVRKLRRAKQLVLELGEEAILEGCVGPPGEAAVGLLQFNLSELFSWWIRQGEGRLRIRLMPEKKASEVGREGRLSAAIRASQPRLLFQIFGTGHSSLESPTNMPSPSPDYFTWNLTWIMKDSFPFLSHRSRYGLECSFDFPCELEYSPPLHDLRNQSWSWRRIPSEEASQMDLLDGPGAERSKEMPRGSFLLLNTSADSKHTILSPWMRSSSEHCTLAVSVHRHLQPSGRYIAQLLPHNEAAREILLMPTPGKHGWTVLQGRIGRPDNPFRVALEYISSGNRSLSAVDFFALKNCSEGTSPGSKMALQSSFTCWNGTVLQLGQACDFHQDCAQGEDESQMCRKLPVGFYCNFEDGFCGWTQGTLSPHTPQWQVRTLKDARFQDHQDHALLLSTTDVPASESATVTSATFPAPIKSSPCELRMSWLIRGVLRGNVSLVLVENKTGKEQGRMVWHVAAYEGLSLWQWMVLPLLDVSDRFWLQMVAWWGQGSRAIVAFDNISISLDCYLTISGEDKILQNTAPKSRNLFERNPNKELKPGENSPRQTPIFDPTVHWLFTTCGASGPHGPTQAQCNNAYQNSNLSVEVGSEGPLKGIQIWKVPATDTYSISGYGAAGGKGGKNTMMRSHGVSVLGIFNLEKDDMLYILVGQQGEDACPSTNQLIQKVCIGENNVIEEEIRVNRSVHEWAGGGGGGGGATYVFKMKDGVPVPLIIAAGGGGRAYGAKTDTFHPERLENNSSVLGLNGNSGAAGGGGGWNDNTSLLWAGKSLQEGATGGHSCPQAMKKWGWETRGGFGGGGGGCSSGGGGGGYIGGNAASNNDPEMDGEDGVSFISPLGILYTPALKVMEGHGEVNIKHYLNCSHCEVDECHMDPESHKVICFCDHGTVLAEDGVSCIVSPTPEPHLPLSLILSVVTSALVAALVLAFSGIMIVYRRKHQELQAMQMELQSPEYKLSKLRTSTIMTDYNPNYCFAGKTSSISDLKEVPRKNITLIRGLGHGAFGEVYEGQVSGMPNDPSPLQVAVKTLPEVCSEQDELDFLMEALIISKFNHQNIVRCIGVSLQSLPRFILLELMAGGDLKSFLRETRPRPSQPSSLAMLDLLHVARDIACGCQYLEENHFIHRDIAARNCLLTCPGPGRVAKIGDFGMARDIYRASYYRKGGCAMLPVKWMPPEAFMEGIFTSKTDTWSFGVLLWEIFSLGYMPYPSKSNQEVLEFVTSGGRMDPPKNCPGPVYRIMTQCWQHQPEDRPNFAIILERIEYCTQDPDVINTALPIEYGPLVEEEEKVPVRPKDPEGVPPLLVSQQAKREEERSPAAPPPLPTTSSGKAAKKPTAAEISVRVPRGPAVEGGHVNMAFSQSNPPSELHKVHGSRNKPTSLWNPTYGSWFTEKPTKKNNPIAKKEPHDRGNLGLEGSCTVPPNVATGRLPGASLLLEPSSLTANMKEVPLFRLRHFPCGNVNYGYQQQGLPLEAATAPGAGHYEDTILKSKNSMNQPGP

Experiments:
[1] = biological target: T1, c-Met (cytoplasmic domain) (Homo sapiens, UniProt P08581); experiment: c-Met Kinase Assay (same methods as for ALK, with modifications); assay type: biochemical; conditions: 1 μM ATP (Km level), 10 ng/mL c-Met; read-out: cMet Activity (c-Met kinase inhibition, IC50 class)
T1 construct: 10 ng/mL c-Met (cytoplasmic domain, Invitrogen Corporation #PV3143); purchased Invitrogen Corporation PV3143
Experimental: (§1) Briefly, each 96-well plate was coated with 100 μL/well of 10 μg/mL substrate (phospholipase C-γ) in Tris-buffered saline (TBS). […] The reaction was initiated by adding enzyme (30 ng/ml ALK) and was allowed to proceed at 37° C. for 15 minutes. Detection of the phosphorylated product was performed by adding 100 μl/well of Eu-N1 labeled PT66 antibody (Perkin Elmer # AD0041).
(§2) Data analysis was performed using ActivityBase (IDBS, Guilford, UK). IC50 values were calculated by plotting percent inhibition versus log10 of the concentration of compound and fitting to the nonlinear regression sigmoidal dose-response (variable slope) equation in XLFit (IDBS, Guilford, UK).
Reactions were initiated with 10 ng/mL c-Met (cytoplasmic domain, Invitrogen Corporation #PV3143).

[2] = biological target: T2, baculovirus-expressed ALK (Homo sapiens, UniProt Q9UM73); experiment: ALK Kinase Assay (ELISA-type, time-resolved fluorescence); assay type: biochemical; conditions: 1 μM ATP (Km level), 30 ng/ml ALK, 37° C., 15 minutes; read-out: ALK Activity (ALK kinase inhibition, IC50 class)
T2 construct: host or cells: baculovirus expression system
Experimental: as §1, §2

- IC50 [1]: > 10 µM
- IC50 [2]: < 0.1 µM
Compound: CCN1C(=O)C(NC(=O)C(F)(F)F)CCc2c1ccc(Nc1ncc(Cl)c(Nc3ccc(N(C)C)cc3OC)n1)c2OC (centres unmarked) [Example 1341, N-{7-[5-Chloro-4-(4-dimethylamino-2-methoxy-phenylamino)-pyrimidin-2-ylamino]-1-ethyl-6-methoxy-2-oxo-2,3,4,5-tetrahydro-1H-benzo[b]azepin-3-yl}-2,2,2-trifluoro-acetamide]
